Data as given in publication PMC9983901.
These are yes or no findings as the source states them, for the method shown. For part of these data: Binding calls can cover weak binding; strength is not graded here. For part of these data: Sequences can lack the tags named with a protein. For part of these data: Binding seen in cells or lysates may run through a third protein. Each block holds one binder with its values, some of them ahead of it.

The chains behind the UniProt entries cited, without tags or fusion partners. Where a name states a change or a piece, a line headed by the entry shows the natural chain unless it says otherwise.
UniProt O76388: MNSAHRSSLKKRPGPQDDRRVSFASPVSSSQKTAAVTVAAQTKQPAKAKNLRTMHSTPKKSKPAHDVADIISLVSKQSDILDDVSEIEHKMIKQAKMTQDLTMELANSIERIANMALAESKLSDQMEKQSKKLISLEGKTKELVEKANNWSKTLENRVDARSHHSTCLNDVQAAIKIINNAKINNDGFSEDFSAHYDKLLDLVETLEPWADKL
UniProt Q7JKT6: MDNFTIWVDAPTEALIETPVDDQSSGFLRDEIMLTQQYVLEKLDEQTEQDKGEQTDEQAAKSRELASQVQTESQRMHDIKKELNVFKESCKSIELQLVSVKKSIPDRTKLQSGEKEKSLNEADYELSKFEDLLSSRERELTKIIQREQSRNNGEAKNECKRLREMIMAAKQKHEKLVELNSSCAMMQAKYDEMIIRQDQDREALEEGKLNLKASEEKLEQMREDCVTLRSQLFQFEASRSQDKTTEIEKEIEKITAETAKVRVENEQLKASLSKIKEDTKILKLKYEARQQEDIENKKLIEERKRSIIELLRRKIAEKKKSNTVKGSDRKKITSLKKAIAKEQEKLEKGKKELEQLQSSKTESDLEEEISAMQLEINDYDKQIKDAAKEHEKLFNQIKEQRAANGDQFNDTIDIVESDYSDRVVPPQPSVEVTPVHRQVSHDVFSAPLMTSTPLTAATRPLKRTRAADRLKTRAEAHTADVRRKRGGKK

How the values were obtained:
[1] = biological target: SYP-2::GFP (C. elegans) (UniProt O76388); assay: co-IP; immunoprecipitation with a GFP antibody from whole worm lysates (gras-1::gfp, syp-2::gfp, wild type); Western blot with anti-SYP-3
[2] = biological target: SYP-2 full length (Gal4 DNA binding domain fusion) (C. elegans) (UniProt O76388); assay: two-hybrid; GRAS-1 constructs in pVV213 (activation domain), SYP constructs in pVV212 (Gal4 DNA binding domain); strains mated on YPD, selected on SC Leu- Trp-
[3] = biological target: SYP-1 full length (Gal4 DNA binding domain fusion) (C. elegans) (UniProt Q7JKT6); assay: as above
[4] = biological target: SYP-3 ΔC (Gal4 DNA binding domain fusion) (C. elegans); assay: as above
[5] = biological target: SYP-4 ΔN (Gal4 DNA binding domain fusion) (C. elegans); assay: as above

binding [1]: binds
B1: SYP-3 (protein, UniProt O62238 1-224)
chain: MNFEKLVSQAVNGDRFKIFCGQLTEFTNSLAGEREAIEKGMRQIETQQLEAETSFTERIAEDRVKCAAQRESLERQLQDLTATDNKLSEQKRDWEERQEKAYDELMSYLENEDVDSAGTQFGDHFNSLIKSMNNLSHDSMNGQFNSLKNNLDELNIEKKQLEVAIADQSSTISEMIPSLRPTCGATYKERNTLRIIFHYQVAKLRSEYQKCRLQEEALKARLST

binding [2]: binds weakly | binding [3]: binds weakly
B2: GRAS-1 ΔCt^1-163 (domain or fragment, UniProt Q93654 1-163)
chain: MDHIDAHSAVSTSSSSSKYDTPDDNISEQRLLCDAKEEYPLNDYLFDGINQESAQRSLLLCRQTFETSFGFALQSYVFKRTSSNSYERITYVDYVSADSPADRCGITRGDMVIAVNEKSVVTASHAEIVESIAQCLQVSLVLVFKDVARIVELSMRSIQLRFM

binding [2]: no binding | binding [3]: no binding
B3: GRAS-1 ΔNt^69-245 (domain or fragment, UniProt Q93654 69-245)
chain: FGFALQSYVFKRTSSNSYERITYVDYVSADSPADRCGITRGDMVIAVNEKSVVTASHAEIVESIAQCLQVSLVLVFKDVARIVELSMRSIQLRFMLDAKIRELRMLEKTEEDLQALYDDEHGNEEEDESLESTLYELDEELKNVQNPQEKEANGTDYRHLIRINSSTSVGTPQVTRL

binding [2]: binds weakly | binding [3]: binds weakly | binding [4]: no binding | binding [5]: no binding
B4: GRAS-1 full length (activation domain fusion) (protein, UniProt Q93654 1-245)
chain: MDHIDAHSAVSTSSSSSKYDTPDDNISEQRLLCDAKEEYPLNDYLFDGINQESAQRSLLLCRQTFETSFGFALQSYVFKRTSSNSYERITYVDYVSADSPADRCGITRGDMVIAVNEKSVVTASHAEIVESIAQCLQVSLVLVFKDVARIVELSMRSIQLRFMLDAKIRELRMLEKTEEDLQALYDDEHGNEEEDESLESTLYELDEELKNVQNPQEKEANGTDYRHLIRINSSTSVGTPQVTRL
